# Test results from PubChem BioAssay AID540256 (National Center for Advancing Translational Sciences (NCATS), 2011).
# Among all 300,000 compounds or so, about 3,700 (1.2%) were called active. This list was built around the results that the source calls inconclusive (neither active nor inactive); the mix of calls is not that of the screen. The call rests on the fitted dose curve; tested in HEK293 cells. A potency beside an inconclusive call is a rough fit, not a confirmed value.
# Assay: qHTS for Inhibitors of binding or entry into cells for Lassa Virus; further: nearly all actives have a fitted effect of over 50% in size
# Conditions: Lassa virus pseudotype entry inhibition, cell reporter; activity change, negative = inhibition: at 37.9 µM (top of the series) unless noted
# On the % scale 0 is the no-effect control and ±100 the full control effect; potency means the concentration at half of the fitted maximal effect.
Compound,Potency,"activity change, negative = inhibition"
O=C(NC(Cc1c[nH]c2ccccc12)C(=O)N/N=C/c1ccc(Cl)cc1)c1cccs1 (stereo unspecified),"inconclusive: 35.5 µM [inhibitor, single point]",–
O=C(COc1ccc(Br)cc1CO)N1CCCc2ccccc21,–,inactive: -18.1% [at 46.1 µM]
C[N+](C)(C)CC1CCCC(C[N+](C)(C)C)C1=O (stereo unspecified),"inconclusive: 28.2 µM [inhibitor, single point]",–
COc1ccc(Cl)cc1NS(=O)(=O)c1cc(Br)cnc1N,"inconclusive: 15.8 µM [inhibitor, single point]",–
CCOC(=O)/C(=C\C=C1/Sc2cc(OCC)c(OCC)cc2N1CC)C(C)=O,"inconclusive: 7.31 µM [inhibitor, partial curve, poor fit]",–
COc1ccccc1NC(=S)N(Cc1ccco1)Cc1cc2cc(C)cc(C)c2[nH]c1=O,"inconclusive: 5.62 µM [inhibitor, single point]",–
Cc1ccc(N2CCN(S(=O)(=O)c3ccc(Cl)s3)CC2C)cc1 (stereo unspecified),–,inactive: -19.2%
CCCCOc1ccccc1C1C(C(=O)OC)=C(C)N(C)C(C)=C1C(=O)OC,"inconclusive: 10 µM [inhibitor, single point]",–
CC(C)c1ccc(NC2=NCC(=O)N2Cc2cccs2)cc1,"inconclusive: 8.91 µM [inhibitor, partial curve, poor fit]",–
Cc1[nH]c2ccc(-c3n[nH]c(=S)n3-c3ccccc3)cc2c1C,"inconclusive: 22.4 µM [inhibitor, partial curve, poor fit]",–
CC1CCN(c2ccccc2NC(=S)NC(=O)C(C)(C)C)CC1,"inconclusive: 14.6 µM [inhibitor, partial curve]",–
COC(=O)c1ccccc1NC(=O)C1CCN(C(=O)c2ccc(OC)cc2)CC1,–,inactive: 1.01%
CCN1C(=O)Nc2cccc3cccc1c23,"inconclusive: 3.16 µM [inhibitor, single point]",–
CCc1ccccc1NC(=O)c1ccc(CN2C(=O)CCn3nc(C)cc32)cc1,–,inactive: -16.5% [at 46.1 µM]
CCOc1cccc(C2CC(=O)Nc3cc4c(cc32)OCCO4)c1 (stereo unspecified),"inconclusive: 8.91 µM [inhibitor, partial curve, poor fit]",–
CCOC(=O)c1ccccc1NC(=O)CN(c1ccccc1)S(=O)(=O)N(C)C,"inconclusive: 23.1 µM [inhibitor, partial curve, poor fit]",–
CCOc1ccc(C(=O)OCC(=O)Nc2nc(OC)cc(OC)n2)cc1OCC,–,inactive: 4.76%
CC(OCCN1CCCC1)(c1ccc(F)cc1)c1ccc(F)cc1,active: 2 µM,–
CC(=O)N(Cc1cc2c(C)cc(C)cc2[nH]c1=O)C1CCCCC1,–,inactive: -22.2%
COc1ccc(-c2cc(C)no2)cc1S(=O)(=O)N1CCN(c2ccccc2F)CC1,"inconclusive: 14.1 µM [inhibitor, single point]",–
CCOC(=O)c1c(-c2ccccc2)csc1NC(=O)c1nn(CC)cc1Br,"inconclusive: 16.4 µM [inhibitor, single point]",–
CC(=O)N1c2ccccc2CC1C(=O)NCc1cccc(Cl)c1 (stereo unspecified),"inconclusive: 5.62 µM [activator, full curve, poor fit]",–
O=C(NNc1nc2cc3c(cc2s1)OCCO3)c1ccccc1,–,inactive: -4.02% [at 46.1 µM]
O=C(C[n+]1ccc(C(=O)NCc2ccccc2)cc1)c1ccc(OC(F)F)cc1,–,inactive: 0.0134% [at 46.1 µM]

Compound,Potency,"activity change, negative = inhibition"
O=C(NCc1ccncc1)C(=O)NCC(c1ccco1)N1CCN(c2ccccc2F)CC1 (stereo unspecified),–,inactive: 4.51%
Cc1[nH]c2c(ccc3cccnc32)c1C,–,inactive: 3.68%
O=C1CCCCC1Sc1nnc(Nc2ccccc2)s1 (stereo unspecified),"inconclusive: 22.4 µM [inhibitor, single point]",–
Cc1ccc(C(=O)Nc2nc(COc3ccccc3)cs2)s1,–,inactive: -45.3%
COc1ccc(C(=O)O/N=C(\N)Cc2ccc([N+](=O)[O-])cc2)c(OC)c1,"inconclusive: 35.5 µM [inhibitor, single point]",–
COc1ccc(NC(=O)C2CCN(C(=O)c3cccs3)CC2)cc1,–,inactive: 1.68%
COc1ccccc1CNC(=O)CN1CCN(S(=O)(=O)c2cccs2)CC1,–,inactive: -17.1%
Cc1cccc(N2CCN(C3=NC(=O)/C(=C\c4cn[nH]c4-c4ccccc4)S3)CC2)c1,–,inactive: -3.17%
Cc1cccc(NC(=O)Cn2cc(C(=O)C3CC3)c3ccccc32)c1C,"inconclusive: 2.82 µM [inhibitor, partial curve, poor fit]",–
O=C1NCC(c2ccccc2)C1C(=O)N/N=C\c1ccc(-c2ccc(Cl)c(Cl)c2)o1 (stereo unspecified),"inconclusive: 14.1 µM [inhibitor, single point]",–
Cc1ccc2nc(-c3ccc(NS(=O)(=O)c4ccc(F)c(F)c4)cc3)sc2c1,"inconclusive: 35.5 µM [inhibitor, single point]",–
CCN(CC)S(=O)(=O)c1ccc2c(c1)C(=NO)c1cc(S(=O)(=O)N(CC)CC)ccc1-2,"inconclusive: 15.8 µM [inhibitor, partial curve, poor fit]",–
Cc1nc([N+](=O)[O-])c(C(=O)OCc2ccccc2)n1C,–,inactive: -1.4% [at 46.1 µM]
COc1ccccc1C(=O)NC(=S)Nc1ccc2[nH]c(=O)[nH]c2c1,"inconclusive: 5.62 µM [inhibitor, single point]",–
O=C(C[n+]1ccc(C(=O)N/N=C/c2ccc(Br)cc2)cc1)c1ccccc1,"inconclusive: 5.01 µM [inhibitor, full curve, poor fit]",–
CCN(CC(=O)Nc1ccccc1C(F)(F)F)C(=O)Cc1ccccc1,–,inactive: 3.27% [at 46.1 µM]
O=C1c2ccccc2-c2c1c1ccccc1c(=O)n2CCO,"inconclusive: 7.08 µM [inhibitor, partial curve, poor fit]",–
COc1ccc(NC(=O)c2c(NC(=O)COc3ccccc3)sc3c2CCC(C)C3)cc1 (stereo unspecified),–,inactive: 12.2% [at 46.1 µM]
CC(=O)N1CCN(c2ncnc3ccccc23)CC1,"inconclusive: 2 µM [activator, full curve, poor fit]",–
Cc1c(NC(=O)CSc2nnc3c4ccccc4n(CCc4ccccc4)c3n2)c(=O)n(-c2ccccc2)n1C,active: 0.631 µM,–
COc1ccc(CCNC(=O)c2cnn(-c3ccc(F)cc3)c2C2CCN(C(=O)OC(C)(C)C)CC2)c(OC)c1,"inconclusive: 1.78 µM [inhibitor, full curve]",–
CCc1ccccc1NC(=O)N1CCc2c([nH]c3ccccc23)C1c1ccc(C)cc1 (stereo unspecified),"inconclusive: 11.2 µM [inhibitor, partial curve, poor fit]",–
Cn1c(=O)n(CCc2ccccc2)c(=O)c2c1nc1n2CCN1Cc1ccco1,"inconclusive: 29.1 µM [inhibitor, single point]",–
Cn1ncc(Cl)c1C(=O)Nc1cc(C(F)(F)F)ccc1F,"inconclusive: 29.1 µM [activator, single point]",–

Compound,Potency,"activity change, negative = inhibition"
CCOc1ccc(C2=NNC(c3cccs3)=Nc3ccc(OC)cc32)cc1,–,inactive: 18.1%
O=C(CN1CCN(c2ccc(F)cc2)CC1)N1N=CCC1c1ccccc1 (stereo unspecified),–,inactive: 1.28%
Cc1ccc(S(=O)(=O)N(CC(=O)NCCc2ccc(Cl)cc2)c2ccccc2C)cc1,"inconclusive: 35.5 µM [inhibitor, single point]",–
COc1cccc(/C=N/N2CCN(c3ccccc3OC)CC2)c1,–,inactive: 2.96%
CCCCNC(=O)c1cc2c(C)cc(C)cc2[nH]1,"inconclusive: 25.1 µM [inhibitor, single point]",–
CCOC(=O)c1c(C)nc(C)c(C(=O)OCC)c1-c1ccc(O)c(OC)c1,"inconclusive: 7.08 µM [inhibitor, partial curve, poor fit]",–
CCOC(=O)C1(CCCc2ccccc2)CCN(C(=O)c2cnn(CC)c2)CC1,"inconclusive: 35.5 µM [inhibitor, partial curve, poor fit]",–
CCOc1ccc(S(=O)(=O)n2cc(-c3ccc(F)cc3)c(N)n2)cc1,–,inactive: -21.8%
O=C(O)Cc1nn(Cc2ccc(Cl)cc2)c(=O)c2ccccc12,–,inactive: -9.55%
COc1ccc(CCNC(=O)Cc2c(C)c3c(cc(C)c4c(C)c(C)oc43)oc2=O)cc1,–,inactive: 6.89% [at 46.1 µM]
COC(=O)[C@H](Cc1ccccc1)NC(=O)NCc1ccc(C)cc1,"inconclusive: 35.5 µM [inhibitor, single point]",–
Cc1ccc(CSc2ccc(-c3ccc4c(c3)OCO4)nn2)cc1,"inconclusive: 15.8 µM [inhibitor, single point]",–
CC(C)(C)c1ccc(CNc2cc(N3CCOCC3)ccc2[N+](=O)[O-])cc1,"inconclusive: 35.5 µM [inhibitor, single point]",–
CCN(CC)S(=O)(=O)c1ccc(-c2csc(C)n2)s1,"inconclusive: 35.5 µM [inhibitor, single point]",–
COCC(C)n1c(C)cc(C(=O)CSc2nnnn2-c2ccc(O)cc2)c1C (stereo unspecified),"inconclusive: 4.47 µM [inhibitor, full curve, poor fit]",–
CCOC(=O)c1[nH]c2ccccc2c1NC(=O)c1ccc(S(=O)(=O)N2CCCCC2)cc1,"inconclusive: 25.9 µM [inhibitor, single point]",–
COc1ccccc1NS(=O)(=O)c1cccc(C(=O)N/N=C/c2ccc([N+](=O)[O-])o2)c1,active: 14.1 µM,–
CCC1CCCCN1C(=O)CSc1nnc(-c2ccc3c(c2)OCCO3)o1 (stereo unspecified),–,inactive: 7.49%
COc1ccccc1N1CCN(c2ncc3c(n2)CCN(Cc2ccccc2F)C3)CC1,–,inactive: 13.4% [at 46.1 µM]
CC1Oc2ccccc2C=C1/C=N\NC(=O)c1cccnc1 (stereo unspecified),–,inactive: -0.948%
Cc1ccc(CSc2oc(-c3cccs3)nc2S(=O)(=O)c2ccccc2)cc1,"inconclusive: 2.51 µM [inhibitor, single point]",–
CCC(=O)Nc1cccc(C(=O)c2ccc(C)c(C)c2)c1,"inconclusive: 35.5 µM [inhibitor, single point]",–
CCc1cccc(C)c1NC(=O)c1cc(-c2ccncc2)nc2ccccc12,–,inactive: -0.434%
